Measured values as given in the supplement of paper PMC3334620.
In all, about 33,000 sequences were measured (“E-score (-0.5 to 0.5)”: median about -0.0034, highest 2% from about 0.25 on). The list shows a part of the results.

target: T1, Yap3 (UniProt P38749); assay: PBM E-score (8-mer binding enrichment) (E-score (-0.5 to 0.5)); higher = stronger / more preferred TF binding; details: protein concentration: 100 nM; construct: GST-full length
T1 sequence: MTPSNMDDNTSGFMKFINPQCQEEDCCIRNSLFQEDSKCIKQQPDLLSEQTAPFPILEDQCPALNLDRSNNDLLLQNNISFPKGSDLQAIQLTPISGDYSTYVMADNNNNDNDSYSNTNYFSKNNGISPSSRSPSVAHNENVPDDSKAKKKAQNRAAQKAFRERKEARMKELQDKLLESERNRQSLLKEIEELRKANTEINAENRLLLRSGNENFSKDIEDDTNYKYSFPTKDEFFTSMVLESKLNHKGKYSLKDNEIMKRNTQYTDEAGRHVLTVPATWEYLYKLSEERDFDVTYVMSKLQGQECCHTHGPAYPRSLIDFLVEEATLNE
In short: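 Masliner-normalised scans of fluorescent anti-GST signal were the basis for scoring. That signal came from GST-tagged yeast transcription factors applied at about 100-200 nM to double-stranded universal all-10-mer Agilent arrays on fresh or once-stripped slides. Each ungapped eight-base word, pooled with its reverse complement, received an E-score from the Universal PBM Analysis Suite.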

Sequence | PBM E-score
GTTATTTA | 0.165
AGCTTAGC | -0.0905
AAAGCTGA | -0.125
AGGTTTCC | -0.0838
CAATCGAC | 0.00283
ACGAGAGT | 0.0438
AGCGTTAG | -0.0215
CCCTTAGG | -0.237
GTGAAAAA | 0.201
CTCCTCCA | -0.187
AGAGGAAC | 0.0284
ATGAATAG | 0.153
AGAGTGCG | 0.0438
AGATCTAA | 0.0587
GCCCGTAA | -0.0469
GGAATAGA | 0.139
CAGAGAAG | -0.127
CGACCGAA | -0.0478
GAAGTTGA | 0.0285
AAGGGTAT | 0.115
TCTCAACA | 0.11
GAACTCGC | 0.0628
TCATTGCA | 0.00796
AGAGTAAT | 0.203
ACTTCCAG | -0.115

Sequence | PBM E-score
AGTAGCCG | 0.117
AGAACGTA | -0.0166
AATTAGCG | 0.2
CCCGCGCC | -0.253
ACCGCTGG | -0.16
CGCCCAAC | -0.0468
CAATGCGA | 0.0204
AGGGACAG | -0.189
CCACCCCG | -0.167
CCTCAAAC | 0.0235
GAAGAGGA | -0.175
ACTCTTCT | -0.0255
AGGTCCGA | -0.023
CTAGCTCC | -0.13
AACAATGA | 0.124
CCCTCCCC | -0.043
ATTCTAAG | 0.083
AATGTCTC | 0.00289
ATGCCGCA | 0.00572
ACCTGGAA | 0.18
CATTCCCA | 0.0633
GAGATTGA | 0.0384
ACCATAAG | -0.0758
ATATCTGA | 0.122
AGACGACA | 0.149

Sequence | PBM E-score
GAATATTA | 0.263
GGGCGTAC | -0.0274
TTACCTAA | 0.281
GTTGAAGA | 0.0575
CTGCGGTA | -0.0714
ACCATTTA | 0.075
CCAATGCG | -0.0417
GACCAAGA | 0.0919
CAGACGTA | -0.172
CAGGGATA | 0.00466
TTCACAAA | 0.0913
CGCACGTA | -0.0271
ACGCCCCC | -0.256
CCCAGCTA | -0.141
GCTCATCC | -0.107
AAACCGCC | -0.0396
AGTGCCTC | -0.229
GAGAACTC | -0.0476
AAACGCAC | 0.0419
ATCGTACG | 0.107
AACAGCCC | -0.115
CGCGATAG | 0.105
ATCTATGC | 0.108
TCTCGTCA | 0.0984
CCGACTAA | -0.0236

Sequence | PBM E-score
GATCTCAC | -0.00137
AAGATCAA | 0.0574
GACACTAA | 0.064
CTCCGCGC | -0.114
AGGGTCTC | -0.16
CTGCATGC | 0.0391
AATAGCCA | 0.0509
AATTAATC | 0.0963
GTTGCAAA | 0.129
AAGGGATG | 0.0144
CGCTGCTA | -0.0611
TCCACCGA | -0.105
ACGTCCAA | 0.129
GTTGGTAA | 0.149
GAGGCAAC | -0.208
ACGATTCG | 0.0411
GGCTTAAC | 0.149
ATGAGCGG | -0.058
CGTGGAGA | 0.00966
CAATGGGC | -0.0644
CCCCTCGA | -0.131
CCCAGGTA | -0.154
TCTGGAAA | 0.0221
AGAGAGTA | 0.0894
GCTTATAC | 0.0794

Sequence | PBM E-score
ATCAGACG | -0.142
ACTGCGGG | -0.169
CCCAATAA | 0.0295
ACGAGGGG | -0.309
GCGTTGAC | -0.0443
AGAATAGC | 0.0507
TGGAGCAA | 0.0378
ATCCTCGG | 0.134
AGTCGTAC | -0.098
AAACACAT | 0.0277
ATCTGCTC | 0.0168
AGGGCCCT | -0.12
TACTGCTA | 0.0241
AAATGACT | -0.0271
GCAGGTTA | -0.0925
CAAGTGGG | -0.148
CACCCGTC | -0.00816
AAACGCGC | -0.0832
CGTGTGCA | 0.0539
AACAACAA | 0.259
CAACGGCC | -0.133
AAGTGTAA | 0.00716
ACTCACTG | 0.0421
AATGTGAC | 0.145
GAGCGGAA | 0.1

Sequence | PBM E-score
AGATCCAC | 0.0145
AGGACTAA | 0.0347
CACGAGGG | -0.29
AGCCATTG | 0.114
AAAGTCAT | 0.0714
AGCAAGGA | -0.0831
ACAGGTAG | 0.0469
CTTAGACA | -0.112
ACTCATAC | 0.0362
AAGGTCTA | -0.107
AATCGCAT | 0.112
ATTGAAGC | -0.0735
CCAACACA | 0.144
TATTTGAA | 0.157
GCCCAGAA | -0.0812
CCTTAGCG | -0.0416
CTAGTAGC | -0.0823
CCAGCGGC | -0.0373
AAAAAGGT | 0.0468
AAGTAACA | 0.235
GCCTTGAC | -0.125
CCTGCTCA | -0.113
CCGCTGAA | -0.075
ACTACGAG | 0.0301
CGTGTGTA | 0.172

Reformatted with tabs: part of the list above
Sequence	PBM E-score
GAGGCAAC	-0.208
ACGATTCG	0.0411
GGCTTAAC	0.149
ATGAGCGG	-0.058
CGTGGAGA	0.00966
CAATGGGC	-0.0644
CCCCTCGA	-0.131
CCCAGGTA	-0.154
TCTGGAAA	0.0221
AGAGAGTA	0.0894
GCTTATAC	0.0794
ATCAGACG	-0.142
ACTGCGGG	-0.169
CCCAATAA	0.0295
ACGAGGGG	-0.309
GCGTTGAC	-0.0443
AGAATAGC	0.0507
TGGAGCAA	0.0378
ATCCTCGG	0.134
AGTCGTAC	-0.098
AAACACAT	0.0277
ATCTGCTC	0.0168
AGGGCCCT	-0.12
TACTGCTA	0.0241
AAATGACT	-0.0271
GCAGGTTA	-0.0925
CAAGTGGG	-0.148
CACCCGTC	-0.00816
AAACGCGC	-0.0832
CGTGTGCA	0.0539
AACAACAA	0.259
CAACGGCC	-0.133
AAGTGTAA	0.00716
ACTCACTG	0.0421
AATGTGAC	0.145
GAGCGGAA	0.1
AGATCCAC	0.0145
AGGACTAA	0.0347
CACGAGGG	-0.29
AGCCATTG	0.114
AAAGTCAT	0.0714
AGCAAGGA	-0.0831
ACAGGTAG	0.0469
CTTAGACA	-0.112
ACTCATAC	0.0362
AAGGTCTA	-0.107
AATCGCAT	0.112

4 entries drawn at random from those above, as already listed:
Sequence | PBM E-score
ACTACGAG | 0.0301
GCCCAGAA | -0.0812
AGCCATTG | 0.114
CCGCTGAA | -0.075

The results go on.

Sequence | PBM E-score
CACTTTTA | 0.102
CGCCTCAA | 0.0431
AATCCGGA | 0.256
AATGCGTG | 0.186
ACGCCGCC | -0.198
AGTGAGTA | 0.271
GTTAGACA | 0.227
AACGCGAA | 0.298
GTCGAGTA | -0.00233
CTCATCTC | 0.157
CGGTGACG | -0.021
GCGCGCAC | 0.0874
GGCATGAC | -0.118
TACTAATA | 0.267
ATAACTAT | 0.0705
TCCATCGA | 0.0124
TGCGCGAA | 0.156
CAATACCA | 0.121
TCTACTAA | 0.212
AAATCGCG | 0.105
GGTAGAGA | 0.0626
CGTATTTC | 0.113
